{
  "source": "PubChem BioAssay (NCATS)",
  "note": "The inconclusive results got no clear call from the source; some entries with a clear call stand among them for comparison. A potency beside an inconclusive call is a rough fit, not a confirmed value. The source made the active and inactive calls. Calls come from the whole dose curve; as a rule, active = well fitted cell-killing curve with a large enough effect; inconclusive = small, poorly fitted or top-dose-only effect, or effect the other way; inactive = no such curve, though single readings can be large or run the other way. Where a SMILES comes first, the peptide text is derived from it. [ ]: non-standard residue; d: D form. The star is where a group is joined. Nva = CCC[C@H](N)C(=O)O; Cbz = O=C(OCc1ccccc1)*",
  "data": [
    {"experiment": "Quantitative High-Throughput drug screen in 47 multiple myeloma cell lines against the NCATS MIPE library collection: KMM1_JCRB cell viability assay (AID 1918960); note: nearly all actives have a fitted effect of over 30% in size; note: potency is the fitted concentration of half-maximal effect", "conditions": "KMM1 myeloma viability, CellTiter-Glo ATP luminescence, 48 h; viability (% of DMSO): at 45.8 µM (top of the series)", "summary_of_the_method": "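Viability screen: myeloma cells (500/well) incubated 48 h at 37 °C, humidified 5% CO2, with pinned library compounds; CellTiter-Glo added, luminescence read; DMSO wells set 100%, medium-only wells 0%.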", "values": [
      {"smiles": "CC=CC1=C(C(=O)O)N2C(=O)[C@H](NC(=O)[C@H](N)c3ccc(O)cc3)[C@@H]2SC1", "viability (% of DMSO)": "inactive: 72%"},
      {"smiles": "COc1cc(OC2CCN(C)CC2)ccc1Nc1ncc2c(n1)n(C1CCCC1)c(=O)n2C", "Potency": "inconclusive: 16.6 µM [cytotoxic, partial curve]"},
      {"smiles": "c1cncc(CN2CCC(n3ncc4c(N5CCOCC5)nc(-c5ccc6[nH]ccc6c5)nc43)CC2)c1", "Potency": "inconclusive: 0.296 µM [cytotoxic, full curve, poor fit]"},
      {"smiles": "Cn1cc(-c2ccc3nnc(Sc4ccc5ncccc5c4)n3n2)cn1", "Potency": "inconclusive: 0.105 µM [cytotoxic, full curve, poor fit]"},
      {"smiles": "CC(C)[N+]1(C)[C@@H]2CC[C@H]1CC(OC(=O)C(CO)c1ccccc1)C2", "note": "(some centres undefined)", "Potency": "inconclusive: 13.2 µM [cytotoxic, partial curve]"},
      {"smiles": "CC(C)(CO)[C@@H](O)C(=O)NCCC(=O)O", "viability (% of DMSO)": "inactive: 101%"},
      {"smiles": "O=C(O)CCNC(=O)c1ccc(N=Nc2ccc(O)c(C(=O)O)c2)cc1", "viability (% of DMSO)": "inactive: 105%"},
      {"smiles": "CN[C@@H]1CN(c2ccc3c(=O)c(C(=O)O)cn(-c4nccs4)c3n2)C[C@@H]1OC", "Potency": "inconclusive: 1.29 µM [cytotoxic, partial curve, poor fit]"},
      {"smiles": "Cc1cc(C(C)Nc2ccccc2)c2nc(N3CCOCC3)cc(=O)n2c1", "note": "(centres undefined)", "Potency": "inconclusive: 23.5 µM [cytotoxic, single point]"},
      {"smiles": "COc1cc(NCc2ccc3nc(N)nc(N)c3c2C)cc(OC)c1OC", "Potency": "active: 1.18 µM"},
      {"smiles": "Cc1cc(-c2nnc3n2CCCCC3)c(C)n1-c1ccccc1", "Potency": "inconclusive: 26.4 µM [cytotoxic, single point]"},
      {"smiles": "C[C@H](c1ccc(F)cc1CCCC(=O)O)N(c1cc(F)ccc1F)S(=O)(=O)c1ccc(Cl)cc1", "Potency": "inconclusive: 2.64 µM [cytotoxic, partial curve, poor fit]"},
      {"smiles": "CN1CCC[C@H]1CCO[C@](C)(c1ccccc1)c1ccc(Cl)cc1", "viability (% of DMSO)": "inactive: 65.5%"},
      {"smiles": "Nc1ccn([C@@H]2CS[C@H](CO)O2)c(=O)n1", "viability (% of DMSO)": "inactive: 89.8% [at 92.2 µM]"},
      {"smiles": "CCC1(C)CC(=O)NC1=O", "note": "(centres undefined)", "viability (% of DMSO)": "inactive: 108%"},
      {"smiles": "CN1CCCN(C(=O)c2cccc(-c3ccc(C=C4C(=O)Nc5ccc(Cl)cc54)o3)c2)CC1", "Potency": "active: 18.7 µM"},
      {"smiles": "COc1ccc2c(c1)c(C1=C(c3c[nH]c4ccccc34)C(=O)NC1=O)cn2CCCN(C)C", "Potency": "active: 23.5 µM"},
      {"smiles": "C=CCc1cccc(C=NNC(=O)CN2CCN(Cc3ccccc3)CC2)c1O", "Potency": "active: 5.26 µM"},
      {"smiles": "Cc1n[nH]c(C)c1Cc1sc2c(c1C(=O)N1C[C@H](O)CO1)c(=O)n(C)c(=O)n2CC(C)C", "Potency": "active: 0.0118 µM"},
      {"smiles": "N#Cc1c(NC(=O)c2cccc3ccccc23)sc2c1CCCC2", "Potency": "active: 0.296 µM"},
      {"smiles": "CC(Cc1ccc(O)c(O)c1)(NN)C(=O)O", "note": "(centres undefined)", "Potency": "inconclusive: 6.62 µM [cytotoxic, full curve, poor fit]"},
      {"smiles": "COc1cc(C=CC(=O)O)ccc1O", "viability (% of DMSO)": "inactive: 92.6%"},
      {"smiles": "Cc1cc(OCCCS(C)(=O)=O)cc(C)c1-c1cccc(COc2ccc3c(c2)OC[C@H]3CC(=O)O)c1", "Potency": "inconclusive: 6.62 µM [cytotoxic, partial curve, poor fit]"},
      {"smiles": "CCc1cncnc1N1CCN(Cc2nc3ccc(C(F)(F)F)cc3[nH]2)CC1", "Potency": "active: 2.64 µM"},
      {"smiles": "CC(C)c1ccccc1Cc1cc(C(=O)Nc2ccc(S(=O)(=O)c3ccccc3C(C)(C)C)cc2)c(O)c(O)c1O", "viability (% of DMSO)": "inactive: 96.8%"},
      {"smiles": "CCC(C)(C)c1ccc(CC(C)CN2C[C@@H](C)O[C@@H](C)C2)cc1", "note": "(some centres undefined)", "viability (% of DMSO)": "inactive: 76.5%"}
    ]},
    {"experiment": "Quantitative High-Throughput drug screen in 47 multiple myeloma cell lines against the NCATS MIPE library collection: Karpas417_ECACC cell viability assay (AID 1918961); note: potency is the fitted concentration of half-maximal effect;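 for viability (% of DMSO): 100% = DMSO only wells and 0% = media only wells without cells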", "conditions": "Karpas417 myeloma viability, CellTiter-Glo ATP luminescence, 48 h; viability (% of DMSO): at 45.8 µM (top of the series)", "summary_of_the_method": "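Viability readout: CellTiter-Glo luminescence following 5 min room-temperature incubation with reagent. Prior exposure: 48 h, 37C, humidified 5% CO2, 500 cells per well.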", "values": [
      {"smiles": "c1cncc(CN2CCC(n3ncc4c(N5CCOCC5)nc(-c5ccc6[nH]ccc6c5)nc43)CC2)c1", "Potency": "inconclusive: 11.8 µM [rising, full curve, poor fit]"},
      {"smiles": "Cn1cc(-c2ccc3nnc(Sc4ccc5ncccc5c4)n3n2)cn1", "Potency": "inconclusive: 33.2 µM [rising, partial curve, poor fit]"},
      {"smiles": "O=C(Nc1nnc(-c2ccco2)o1)c1cc(-c2ccccc2)nc2ccccc12", "Potency": "active: 23.5 µM"},
      {"smiles": "CC(C)[N+]1(C)[C@@H]2CC[C@H]1CC(OC(=O)C(CO)c1ccccc1)C2", "note": "(some centres undefined)", "Potency": "inconclusive: 16.6 µM [cytotoxic, partial curve, poor fit]"},
      {"smiles": "CC(C)(CO)[C@@H](O)C(=O)NCCC(=O)O", "Potency": "inconclusive: 0.372 µM [rising, full curve, poor fit]"},
      {"smiles": "CCC[C@@H](C=O)NC(=O)[C@H](CC(C)C)NC(=O)[C@H](CC(C)C)NC(=O)OCc1ccccc1", "note": "(Cbz-Leu-Leu-[Nva]-aldehyde)", "Potency": "active: 0.296 µM"},
      {"smiles": "CC(C)(N)c1ccc(-c2nc3ccccc3nc2-c2ccccc2)cc1", "Potency": "active: 0.372 µM"},
      {"smiles": "Cc1cc(C(C)Nc2ccccc2)c2nc(N3CCOCC3)cc(=O)n2c1", "note": "(centres undefined)", "Potency": "inconclusive: 5.9 µM [cytotoxic, partial curve, poor fit]"},
      {"smiles": "O=C(Nc1cccc(Cl)c1)Nc1ncc(CCNc2ncnc3ccsc23)s1", "Potency": "inconclusive: 37.2 µM [rising, partial curve, poor fit]"},
      {"smiles": "COc1cc(NCc2ccc3nc(N)nc(N)c3c2C)cc(OC)c1OC", "Potency": "active: 4.18 µM"},
      {"smiles": "Cc1ccc(NC(=O)c2cccc(C(C)(C)C#N)c2)cc1Nc1ccc2ncn(C)c(=O)c2c1", "Potency": "active: 0.187 µM"},
      {"smiles": "Cc1cc(-c2nnc3n2CCCCC3)c(C)n1-c1ccccc1", "Potency": "inconclusive: 0.0372 µM [cytotoxic, full curve, poor fit]"},
      {"smiles": "C[C@H](c1ccc(F)cc1CCCC(=O)O)N(c1cc(F)ccc1F)S(=O)(=O)c1ccc(Cl)cc1", "Potency": "inconclusive: 33.2 µM [rising, single point]"},
      {"smiles": "CN1CCC[C@H]1CCO[C@](C)(c1ccccc1)c1ccc(Cl)cc1", "Potency": "inconclusive: 1.18 µM [rising, partial curve, poor fit]"},
      {"smiles": "Nc1ccn([C@@H]2CS[C@H](CO)O2)c(=O)n1", "Potency": "inconclusive: 0.003 µM [cytotoxic, full curve, poor fit]"},
      {"smiles": "CCC1(C)CC(=O)NC1=O", "note": "(centres undefined)", "Potency": "inconclusive: 0.0083 µM [cytotoxic, full curve, poor fit]"},
      {"smiles": "CN1CCCN(C(=O)c2cccc(-c3ccc(C=C4C(=O)Nc5ccc(Cl)cc54)o3)c2)CC1", "Potency": "active: 3.72 µM"},
      {"smiles": "COc1ccc2c(c1)c(C1=C(c3c[nH]c4ccccc34)C(=O)NC1=O)cn2CCCN(C)C", "Potency": "inconclusive: 37.2 µM [cytotoxic, partial curve, poor fit]"},
      {"smiles": "C=CCc1cccc(C=NNC(=O)CN2CCN(Cc3ccccc3)CC2)c1O", "Potency": "inconclusive: 26.4 µM [rising, partial curve, poor fit]"},
      {"smiles": "Cc1n[nH]c(C)c1Cc1sc2c(c1C(=O)N1C[C@H](O)CO1)c(=O)n(C)c(=O)n2CC(C)C", "Potency": "active: 0.0209 µM"},
      {"smiles": "CNC(=O)[C@H](CC1=CN=C2C=CCC=C12)NC(=O)[C@@H](CC(=O)NO)CC(C)C", "Potency": "active: 0.0209 µM"},
      {"smiles": "CC(Cc1ccc(O)c(O)c1)(NN)C(=O)O", "note": "(centres undefined)", "Potency": "inconclusive: 10.5 µM [rising, full curve, poor fit]"},
      {"smiles": "Cc1ccc(S(=O)(=O)NC(=O)NN2CC3CCCC3C2)cc1", "note": "(centres undefined)", "Potency": "inconclusive: 20.9 µM [cytotoxic, partial curve, poor fit]"},
      {"smiles": "COc1cc(C=CC(=O)O)ccc1O", "Potency": "active: 0.0042 µM"},
      {"smiles": "CCc1cncnc1N1CCN(Cc2nc3ccc(C(F)(F)F)cc3[nH]2)CC1", "viability (% of DMSO)": "inactive: 119%"},
      {"smiles": "CC(C)c1ccccc1Cc1cc(C(=O)Nc2ccc(S(=O)(=O)c3ccccc3C(C)(C)C)cc2)c(O)c(O)c1O", "Potency": "inconclusive: 0.0066 µM [rising, full curve, poor fit]"},
      {"smiles": "CCC(C)(C)c1ccc(CC(C)CN2C[C@@H](C)O[C@@H](C)C2)cc1", "note": "(some centres undefined)", "viability (% of DMSO)": "inactive: 159%"},
      {"smiles": "COc1c(C)cnc(Cn2cnc3c(Cl)nc(N)nc32)c1C", "Potency": "active: 0.0235 µM"}
    ]}
  ]
}
